Measurements published in patent US5212286A (Scios Nova Inc., priority 1986, dated 1993).
HELM strings list residues between dots; [ac] is acetyl, [am] amide, other brackets name non-standard units. One purity is given for all peptides; the source may state it once.

Assay: general procedure: Boc solid-phase peptide synthesis; chloromethylated polystyrene resin; p-Methylbenzhydrylamine (pMBHA) resin for amides; N,N'-dicyclohexylcarbodiimide
Conditions: whole synthesis, reversed phase HPLC, acetate salt

PEPTIDE1{R.S.S.C.F.G.G.R.M.D.R.I.G.A.Q.S.G.L.G.C.N.S.F.R.Y}$PEPTIDE1,PEPTIDE1,4:R3-20:R3$$$V2.0
final HPLC purity: minimum 97% purity

PEPTIDE1{R.S.S.C.F.G.G.R.I.D.R.I.G.A.Q.S.G.L.G.C.N.S.F.R.Y}$PEPTIDE1,PEPTIDE1,4:R3-20:R3$$$V2.0
final HPLC purity: minimum 97% purity
